Laboratory results taken from patent US20130115220A1, “METHOD FOR PREVENTION OR TREATMENT OF METABOLIC SYNDROME” (DAINIPPON SUMITOMO PHARMA CO., LTD., priority 2010, published 2013).
These are yes or no findings as the source states them, for the method shown. In cells and extracts the contact can be indirect. Some entries that bind do so weakly or less than the wild type. Tags and fused reporters may be left off the sequences shown.

How the values were obtained:
[1] = biological target: endogenous fatty acid synthase (FAS) of mouse adipose tissue and 3T3-L1 adipocytes (mouse) (UniProt P19096); assay: co-immunoprecipitation with anti-HA antibody from adipose tissue of AIM-/- mice injected with rAIM-HA; Western blot for FAS
[2] = biological target: T1, dehydrase (DH) domain of FAS labeled with Flag at the N-terminal (UniProt P19096); assay: co-immunoprecipitation of Flag-tagged FAS domain with AIM-HA in HEK293T cells
T1 sequence (looked up): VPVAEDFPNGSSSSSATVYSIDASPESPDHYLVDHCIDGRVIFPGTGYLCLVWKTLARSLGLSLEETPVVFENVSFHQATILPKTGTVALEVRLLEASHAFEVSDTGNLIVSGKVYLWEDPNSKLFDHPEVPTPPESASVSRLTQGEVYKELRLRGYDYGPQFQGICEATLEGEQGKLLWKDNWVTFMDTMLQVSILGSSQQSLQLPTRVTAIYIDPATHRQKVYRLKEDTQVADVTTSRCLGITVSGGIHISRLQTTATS

[3] = biological target: T2, thioesterase (TE) domain of FAS labeled with Flag at the N-terminal (UniProt P19096); assay: as above
T2 sequence (looked up): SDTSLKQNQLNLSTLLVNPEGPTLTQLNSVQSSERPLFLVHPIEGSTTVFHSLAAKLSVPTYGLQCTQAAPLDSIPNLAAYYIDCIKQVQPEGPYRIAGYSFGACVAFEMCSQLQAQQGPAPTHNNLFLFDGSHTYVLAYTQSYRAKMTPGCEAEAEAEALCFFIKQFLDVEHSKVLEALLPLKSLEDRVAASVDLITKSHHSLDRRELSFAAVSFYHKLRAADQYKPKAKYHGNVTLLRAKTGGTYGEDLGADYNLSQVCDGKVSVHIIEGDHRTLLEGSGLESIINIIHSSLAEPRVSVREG

[4] = biological target: full-length FAS labeled with FLAG-tag (UniProt P19096); assay: co-immunoprecipitation with anti-Flag or anti-HA antibody in HEK 293T cells (legend of FIG. 25)
[5] = biological target: full-length FAS labeled with FLAG-tag (UniProt P19096); assay: co-immunoprecipitation with anti-Flag or anti-HA antibody, both co-expressed in HEK 293T cells
[6] = biological target: endogenous fatty acid synthase (FAS) of mouse adipose tissue and 3T3-L1 adipocytes (mouse) (UniProt P19096); assay: co-immunoprecipitation with anti-HA antibody from adipose tissue; Western blot (legend of FIG. 24)

binding [1]: binds
binding [2]: binds
binding [3]: binds
binding [4]: binds
binding [5]: binds
binding [6]: binds
B1: recombinant AIM protein (rAIM) of mouse labeled with HA-tag (ligand, not shown: small tags and cut ends)
chain: ESPTKVQLVGGAHRCEGRVEVEHNGQWGTVCDDGWDRRDVAVVCRELNCGAVIQTPRGASYQPPASEQRVLIQGVDCNGTEDTLAQCELNYYVFDCSHEEDAGAQCENPDSDLLFIPEDVRLVDGPGHCQGRVEVLHQSQWSTVCKAGWNLQVSKVVCRQLGCGRALLTYGSCNKNTQGKGPIWMGKMSCSGQEANLRSCLLSRLENNCTHGEDTWMECEDPFELKLVGGDTPCSGRLEVLHKGSWGSVCDDNWGEKEDQVVCKQLGCGKSLHPSPKTRKIYGPGAGRIWLDDVNCSGKEQSLEFCRHRLWGYHDCTHKEDVEVICTDFDV
